According to patent US20140000884A1, “PETROLEUM RECOVERY PROCESS AND SYSTEM” (Shell Oil Company, priority 2012, published 2014):
Values joined by “and” are separate entries in the source; they are usually repeats but may differ in a detail not shown here. Equal entries are not always repeated. Where two headings read alike, the source gives them in different places.

Assay: Extraction of mined oil sands with solvents (cyclic contact and drain)

Row | SMILES | Weight Change (solids) (extraction at 10° C.) [g] | Weight Change (solids) (extraction at 30° C.) [g] | Weight Change (solids)
1 | S=C=S [Carbon Disulfide, carbon disulfide] | 16.8 | 16.4 | –
2 | ClC(Cl)Cl [Chloroform, chloroform] | – | – | 18.7 g and 19.4 g
3 | ClCCl [Dichloromethane, dichloromethane] | 18.9 | 17.7 | –
4 | CSC [Dimethyl Sulfide, dimethyl sulfide] | 16.9 | 16.7 | –
5 | CCOC(C)=O [Ethyl Acetate, ethyl acetate] | 11.2 | 17.7 | –
6 | C1CCOC1 [Tetrahydrofuran, tetrahydrofuran] | 17.7 | 18.0 | –
7 | Cc1ccccc1C [o-Xylene, o-xylene] | 17.3 | 19.5 | –
